# Laboratory results: PubChem BioAssay AID686943 (Drosophila RNAi Screening Center, 2013)
# Screen: 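Fly genes whose loss alters ERK activation after insulin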 (primary screen)
# Cell system: Drosophila S2R+ haemocyte-like cells expressing YFP-tagged ERK (Rolled)
# Reagent: long dsRNA against Drosophila genes
# Challenge: insulin stimulation versus unstimulated cells; dose and duration not given
# Measurement: 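Per-plate z-scores of phospho-ERK immunostaining normalised to YFP-tagged ERK, measured with and without insulin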
# Reading the numbers: replicate 1, z-score of dpERK with insulin: higher = more active ERK per ERK-YFP after insulin
# In all, the deposit lists about 23,000 reagents; below is a random part of those with a known target gene and a result. 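Extra replicates exist only for a retested subset of genes; insulin dose and duration not given; both raised and lowered dpERK matter.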 Names joined by + are all predicted targets of the reagent. Not all columns of the deposit are shown. No sequences are given here. Not stated in the record: the amount of reagent, the time to read-out.
predicted target,PubChem SID,"replicate 1, z-score of dpERK with insulin"
eIF4EHP,SID104193445,0.65
eIF4EHP,SID104194057,0.83
rush (rush hour),SID104198360,1.23
CG14219,SID104199368,0.49
CG1418,SID104186239,0.71
CG14294,SID104194566,1.07
CG12290,SID104194289,-0.19
CG13138,SID104182027,-0.19
CG8852,SID104180511,0.16
cmpy (crimpy),SID104191493,-0.75
CG34050 (retired record),SID104188859,-2.03
CG15124,SID104186338,0.08
mtTFB2 (mitochondrial transcription factor B2),SID104195311,0.67
CG17327,SID104195017,-0.03
CG6610,SID104190466,1.95
NimB2 (Nimrod B2),SID104202050,-0.07
HP1b (Heterochromatin Protein 1b),SID104198210,-0.54
inaC (inactivation no afterpotential C),SID104187424,-0.87
eIF2gamma + Su(var)3-9,SID104192873,3.49
eIF2gamma + Su(var)3-9,SID104196665,-0.65
MED6 (Mediator complex subunit 6),SID104196292,1.85
CG15236,SID104184762,-0.12
CG15236,SID104201159,-2.05
CG6168,SID104190388,-0.1
CG7135,SID104199818,0.91
CG32087,SID104190598,-0.08
Tsp33B (Tetraspanin 33B),SID104182210,-0.19
ND-B18 (NADH dehydrogenase (ubiquinone) B18 subunit),SID104199739,0.81
CG32219,SID104189433,0.76
Herc4 (HECT and RLD domain containing E3 ubiquitin ligase 4),SID104188423,-0.08
PAPLA1 (Phosphatidic Acid Phospholipase A1),SID104182887,-0.26
PAPLA1 (Phosphatidic Acid Phospholipase A1),SID104182888,0.14
Cyp6a17 (Cytochrome P450 6a17),SID104187170,0.91
spaw (spacewatch),SID104186616,-0.67
CG17486,SID104187544,-0.5
CG11458,SID104191458,1.44
CCHa2-R (CCHamide-2 receptor),SID104184617,1.14
CCHa2-R (CCHamide-2 receptor),SID104184662,0.82
CCHa2-R (CCHamide-2 receptor),SID104184663,0.25
Cpes (Ceramide phosphoethanolamine synthase),SID104184267,0.96
CG7326,SID104199829,0.67
CG17029,SID104190032,0.15
Karl,SID104199675,0.11
CHES-1-like (Checkpoint suppressor 1-like),SID104198239,-0.83
MAPk-Ak2 (MAP kinase activated protein-kinase-2),SID104198470,-0.58
mew (multiple edematous wings),SID104198763,0.44
mew (multiple edematous wings),SID104200144,-0.42
ocn (ocnus),SID104196812,0.41
CG15651,SID104184034,0.61
CD98hc (CD98 heavy chain),SID104195245,0.01
wmd (wing morphogenesis defect),SID104184228,-0.33
CG13601,SID104194396,-0.02
RpS26 (Ribosomal protein S26),SID104183212,-3.85
Irp-1A (Iron regulatory protein 1A),SID104196511,0.3
CG12116,SID104197604,0.29
CG16723,SID104194930,0.87
Eig71Ef (Ecdysone-induced gene 71Ef),SID104190945,0.4

Reformatted: results already given
{"predicted target": "Irp-1A (Iron regulatory protein 1A)", "PubChem SID": "SID104196511", "replicate 1, z-score of dpERK with insulin": 0.3}
{"predicted target": "CG12116", "PubChem SID": "SID104197604", "replicate 1, z-score of dpERK with insulin": 0.29}
{"predicted target": "CG16723", "PubChem SID": "SID104194930", "replicate 1, z-score of dpERK with insulin": 0.87}
